Data taken from article PMC2868802.

Sequences of proteins named here, by UniProt entry; tags and fusion partners are left off. A change or cut given only in a name is not applied to a line headed by its entry. Residues count along the entry.
UniProt Q9NBK5: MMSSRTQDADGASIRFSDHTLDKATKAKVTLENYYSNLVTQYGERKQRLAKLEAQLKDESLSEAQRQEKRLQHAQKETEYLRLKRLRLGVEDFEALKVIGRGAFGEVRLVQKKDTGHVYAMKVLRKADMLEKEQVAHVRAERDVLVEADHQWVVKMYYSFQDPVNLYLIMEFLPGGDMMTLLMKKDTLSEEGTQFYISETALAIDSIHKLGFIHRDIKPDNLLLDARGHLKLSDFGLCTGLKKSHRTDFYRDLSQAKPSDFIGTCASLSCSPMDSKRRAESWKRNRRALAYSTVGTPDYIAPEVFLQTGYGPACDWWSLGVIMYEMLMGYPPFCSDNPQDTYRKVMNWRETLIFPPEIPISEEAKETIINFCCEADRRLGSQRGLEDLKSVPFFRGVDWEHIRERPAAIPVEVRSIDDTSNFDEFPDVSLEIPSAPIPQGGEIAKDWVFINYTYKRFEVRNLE
UniProt Q9VT28, residues 1-1637: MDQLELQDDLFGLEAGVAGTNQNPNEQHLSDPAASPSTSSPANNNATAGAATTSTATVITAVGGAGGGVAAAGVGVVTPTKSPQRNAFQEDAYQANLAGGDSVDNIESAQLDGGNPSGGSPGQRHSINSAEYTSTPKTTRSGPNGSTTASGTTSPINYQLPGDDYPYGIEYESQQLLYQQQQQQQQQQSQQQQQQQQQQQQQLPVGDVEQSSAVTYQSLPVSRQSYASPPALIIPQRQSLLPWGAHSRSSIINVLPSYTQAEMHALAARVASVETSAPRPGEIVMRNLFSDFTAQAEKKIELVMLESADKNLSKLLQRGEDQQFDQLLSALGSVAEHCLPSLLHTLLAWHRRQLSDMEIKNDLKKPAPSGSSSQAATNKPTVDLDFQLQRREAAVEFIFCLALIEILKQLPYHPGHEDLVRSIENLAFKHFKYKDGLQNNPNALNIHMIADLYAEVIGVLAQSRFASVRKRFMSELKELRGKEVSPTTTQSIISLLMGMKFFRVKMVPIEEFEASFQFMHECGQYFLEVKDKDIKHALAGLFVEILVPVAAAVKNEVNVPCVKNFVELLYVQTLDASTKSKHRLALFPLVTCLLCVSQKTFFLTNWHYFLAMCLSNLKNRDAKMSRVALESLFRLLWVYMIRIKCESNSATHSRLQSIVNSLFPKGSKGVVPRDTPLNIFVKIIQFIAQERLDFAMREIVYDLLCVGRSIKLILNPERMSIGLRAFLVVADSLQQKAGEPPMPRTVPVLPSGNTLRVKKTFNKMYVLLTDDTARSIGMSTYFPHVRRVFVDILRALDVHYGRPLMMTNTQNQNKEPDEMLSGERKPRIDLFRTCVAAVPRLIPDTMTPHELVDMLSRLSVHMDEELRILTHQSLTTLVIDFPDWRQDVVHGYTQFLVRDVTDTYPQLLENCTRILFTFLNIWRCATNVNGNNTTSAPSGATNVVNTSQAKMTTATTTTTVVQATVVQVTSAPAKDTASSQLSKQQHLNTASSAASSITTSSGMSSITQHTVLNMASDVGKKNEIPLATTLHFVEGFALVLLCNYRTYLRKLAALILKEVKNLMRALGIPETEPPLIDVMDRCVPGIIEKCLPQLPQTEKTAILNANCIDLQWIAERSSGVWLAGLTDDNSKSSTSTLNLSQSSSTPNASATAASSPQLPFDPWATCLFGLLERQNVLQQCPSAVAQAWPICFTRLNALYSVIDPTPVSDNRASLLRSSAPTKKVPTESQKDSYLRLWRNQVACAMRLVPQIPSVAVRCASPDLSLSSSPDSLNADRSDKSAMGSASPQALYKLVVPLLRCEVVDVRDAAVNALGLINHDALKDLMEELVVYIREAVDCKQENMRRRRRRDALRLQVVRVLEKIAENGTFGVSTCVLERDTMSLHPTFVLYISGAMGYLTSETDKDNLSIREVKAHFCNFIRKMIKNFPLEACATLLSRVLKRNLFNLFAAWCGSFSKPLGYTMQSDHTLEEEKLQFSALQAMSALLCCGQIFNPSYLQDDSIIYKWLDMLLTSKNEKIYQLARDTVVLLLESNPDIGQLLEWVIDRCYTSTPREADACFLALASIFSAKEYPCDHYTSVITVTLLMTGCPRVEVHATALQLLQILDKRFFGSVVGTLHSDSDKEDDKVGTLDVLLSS

Biological target: trcD^2-1 (amino acid #1-350) (Drosophila) (UniProt Q9NBK5)
Experiment: two-hybrid; Matchmaker GAL4 two hybrid system 3 (Clontech); N-Fry in pGADT7, Trc proteins in pGBKT7; scored as interacting by complementation for growth and induction of beta-galactosidase

## amino terminal fragment of Fry (amino terminal 1637 amino acids) in pGADT7 (from UniProt Q9VT28 1-1637) (domain or fragment)
  binding: binds

Results are given in words; binding and its absence hold for the method and conditions named. A result given as binding can be weak or reduced; the word gives no strength.
